Laboratory results taken from patent WO2008118324A2.
No constants are given. Whether binding was seen depends on the method and setting. Some results given as binding are weak or reduced against the parent protein; the word gives no strength.

Biological target: UPK-G1 fusion protein (121 amino acid extracellular region of human UPK-Ib fused to the human IgG1 Fc region) (human)
Experiment: ELISA on UPK1-Fc (Figure 3B)

| Substance | binding |
| --- | --- |
| chimeric 1G9 (human IgG1 wild type Fc) (from UniProt P01857 1-330; P01834 1-107) (antibody) | binds |
| chimeric 5H9 (human IgG1 wild type Fc) (from UniProt P01857 1-330; P01834 1-107) (antibody) | binds |
